The values that follow come from paper PMC10369948 (bioRxiv, 2023).

The series has as its system SRC1 PAS-B-Nurr1 AF1^28−51 fusion. Description: 1H-15N HSQC NMR titration. The series is classed as binding. To be noted: 1:10 protein:ligand, 0.2 mM protein, pH 6.8, 30 °C.
As for `CCCCC[C@H](O)/C=C/[C@H]1C=CC(=O)[C@@H]1CCCCCCC(=O)O` [PGA1], the “Mean CSP ± Standard Deviation for All Peaks (ppm)” value is listed as 0.014 ± 0.019 ppm. On to `CCCCC[C@H](O)/C=C/[C@H]1[C@H](O)CC(=O)[C@H]1CCCCCCC(=O)O` [8-iso PGE1], for which the “Mean CSP ± Standard Deviation for All Peaks (ppm)” value is reported as 0.013 ± 0.010 ppm. Under `CCCCC[C@H](O)/C=C/[C@H]1C(=O)C[C@H](O)[C@@H]1CCCCCCC(=O)O` [PGD1] stands 0.008 ± 0.004 ppm; under `CCCCC[C@H](O)/C=C/C1=C(CCCCCCC(=O)O)C(=O)CC1` [PGB1], 0.026 ± 0.026 ppm. Under `CCCCC[C@H](O)/C=C/[C@H]1[C@H](O)CC(=O)[C@@H]1C/C=C\CCCC(=O)O` [PGE2] stands 0.009 ± 0.007 ppm.
